# Measurements as given in the supplement of paper PMC4635364.
# Where a name gives a salt, the structure may show the parent alone. The list shows a part of the results. Repeats in this data set agree poorly, so a single value says little.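 ReNCell VM, a human fetal ventral-midbrain neural progenitor line, was differentiated without mitogens. Blinded raters scored images stained for doublecortin (early neurons) or tyrosine hydroxylase (dopaminergic neurons) against untreated wells (0 = no change). Scores were averaged across repeats and both raters, and compounds averaging 2 or more were selected as hits for retesting.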
# Legend:
# [1] = tested on: ReNCell VM; experiment: neuronal differentiation score (DCX+ cell fraction vs untreated, manual image score) (score (-3 to 3)); higher = more neuronal differentiation; settings: 2 uM, 2 weeks
# [2] = tested on: ReNCell VM; experiment: dopaminergic neuron differentiation score (TH+ cell fraction vs untreated, manual image score) (score (0 to 3)); higher = more TH+ dopaminergic neuron differentiation; settings: 2 uM, 4 weeks, BDNF 10 ng/ml + GDNF 10 ng/ml
compound,measurement,setting,value
C=C(NC(=O)C(=C)NC(=O)c1csc(C2=N[C@@H]3c4csc(n4)[C@H]4NC(=O)c5csc(n5)[C@H]([C@](C)(O)[C@@H](C)O)NC(=O)[C@H]5CSC(=N5)/C(=C/C)NC(=O)[C@H]([C@@H](C)O)NC(=O)c5csc(n5)[C@]3(CC2)NC(=O)[C@H](C)NC(=O)C(=C)NC(=O)[C@H](C)NC(=O)[C@H]([C@@H](C)CC)N[C@@H]2C=Cc3c([C@H](C)O)cc(nc3[C@H]2O)C(=O)O[C@@H]4C)n1)C(N)=O,neuronal differentiation score,[1]; library: Spectrum,inactive: 0
same,dopaminergic neuron differentiation score,[2]; library: Spectrum,inactive: 0
C#CCCCCCCCCCCCC(O)CC(O)CO.C=CCCCCCCCCCCCC(O)CC(O)CO (stereo not drawn),neuronal differentiation score,[1]; library: Spectrum,inactive: 0
same,dopaminergic neuron differentiation score,[2]; library: Spectrum,inactive: 0
N[C@H](C(=O)O)[C@H](OCc1ccccc1)C(=O)O (racemic),neuronal differentiation score,[1]; library: Tocriscreen,inactive: 0
same,dopaminergic neuron differentiation score,[2]; library: Tocriscreen,inactive: 0
CCc1c2c(nc3ccc(O)cc13)-c1cc3c(c(=O)n1C2)COC(=O)[C@]3(O)CC,neuronal differentiation score,[1]; library: Tocriscreen,inactive: 0
same,dopaminergic neuron differentiation score,[2]; library: Tocriscreen,inactive: 0
Nc1nc(NC2CC2)c2ncn([C@H]3C=C[C@@H](CO)C3)c2n1 [Abacavir Sulfate],neuronal differentiation score,[1]; library: Prestwick,inactive: 0
same,dopaminergic neuron differentiation score,[2]; library: Prestwick,inactive: 0
COc1cc2nc(N3CCN(C(=O)C4CCCO4)CC3)nc(N)c2cc1OC (stereo not drawn),neuronal differentiation score,[1]; library: Spectrum,inactive: 1
same,dopaminergic neuron differentiation score,[2]; library: Spectrum,inactive: 0
CC(=O)[C@H]1CC[C@H]2[C@@H]3C[C@H](C)C4=CC(=O)CC[C@]4(C)[C@H]3[C@@H](O)C[C@]12C [Medrysone],neuronal differentiation score,[1]; library: Prestwick,inactive: 0
same,dopaminergic neuron differentiation score,[2]; library: Prestwick,inactive: 0
C[C@]12C=CC(=O)C=C1CC[C@@H]1[C@@H]2[C@@H](O)C[C@@]2(C)[C@H]1CC[C@]2(O)C(=O)COP(=O)(O)O,neuronal differentiation score,[1]; library: Spectrum,inactive: 0
same,dopaminergic neuron differentiation score,[2]; library: Spectrum,inactive: 0
CN(C(=O)C(Cl)Cl)c1ccc(OC(=O)c2ccco2)cc1,neuronal differentiation score,[1]; library: Spectrum,inactive: 0
same,dopaminergic neuron differentiation score,[2]; library: Spectrum,inactive: 0
C[N+](C)(C)CCOP(=O)(O)OP(=O)([O-])OC[C@H]1O[C@@H](n2ccc(N)nc2=O)[C@H](O)[C@@H]1O [Citicoline sodium],neuronal differentiation score,[1]; library: LOPAC,inactive: 0
same,dopaminergic neuron differentiation score,[2]; library: LOPAC,inactive: 0
CN1CC(=O)N2[C@H](c3ccc4c(c3)OCO4)c3[nH]c4ccccc4c3C[C@@H]2C1=O,neuronal differentiation score,[1]; library: Spectrum,inactive: 0
same,dopaminergic neuron differentiation score,[2]; library: Spectrum,inactive: 0
COc1cc(C/C=C/c2ccccc2)c(OC)cc1O,neuronal differentiation score,[1]; library: Spectrum,inactive: 0
same,dopaminergic neuron differentiation score,[2]; library: Spectrum,inactive: 0
C[C@H]1COc2c(N3CCN(C)CC3)c(F)cc3c(=O)c(C(=O)O)cn1c23,neuronal differentiation score,[1]; library: Spectrum,inactive: 0
same,dopaminergic neuron differentiation score,[2]; library: Spectrum,inactive: 0
N[C@H](Cc1ccccc1)C(=O)O,neuronal differentiation score,[1]; library: Spectrum,inactive: 0
same,dopaminergic neuron differentiation score,[2]; library: Spectrum,inactive: 0
O=NN(CCCl)C(=O)NCCCl,neuronal differentiation score,[1]; library: Spectrum,inactive: 0
same,dopaminergic neuron differentiation score,[2]; library: Spectrum,inactive: 0
C[C@H]1[C@H](C)CC[C@]2(C(=O)O[C@@H]3O[C@H](CO[C@@H]4O[C@H](CO)[C@@H](O[C@@H]5O[C@H](C)[C@H](O)[C@@H](O)[C@H]5O)[C@H](O)[C@H]4O)[C@@H](O)[C@H](O)[C@H]3O)CC[C@]3(C)C(=CC[C@@H]4[C@@]5(C)C[C@@H](O)[C@H](O)[C@@](C)(CO)[C@@H]5CC[C@]43C)[C@H]12 [Asiaticoside],neuronal differentiation score,[1]; library: Phytochemical,inactive: -1
same,dopaminergic neuron differentiation score,[2]; library: Phytochemical,inactive: 0
Cc1cc2nc3c(=O)[nH]c(=O)nc-3n(CC(O)C(O)C(O)CO)c2cc1N(C)C (stereo not drawn) [roseoflavin],neuronal differentiation score,[1]; library: Natural,inactive: 0
same,dopaminergic neuron differentiation score,[2]; library: Natural,inactive: 0
COc1cc(OC)c2ccc(=O)oc2c1,neuronal differentiation score,[1]; library: Spectrum,inactive: 0
same,dopaminergic neuron differentiation score,[2]; library: Spectrum,inactive: 0
C[n+]1ccccc1/C=N/O,neuronal differentiation score,[1]; library: Spectrum,inactive: 0
same,dopaminergic neuron differentiation score,[2]; library: Spectrum,inactive: 0
COc1ccc2c(c1)OCC(Cc1ccc(OC)c(OC(C)=O)c1)C2=O (stereo not drawn),neuronal differentiation score,[1]; library: Spectrum,inactive: 0
same,dopaminergic neuron differentiation score,[2]; library: Spectrum,inactive: 0
C[C@]12CC[C@@H]3c4ccc(O)cc4CC[C@H]3[C@@H]1C[C@@H](O)[C@@H]2O [Estriol],neuronal differentiation score,[1]; library: Prestwick,inactive: 0
same,dopaminergic neuron differentiation score,[2]; library: Prestwick,inactive: 0
O=C(O)CCCC[C@@H]1SC[C@@H]2NC(=O)N[C@@H]21,neuronal differentiation score,[1]; library: Spectrum,inactive: 0
same,dopaminergic neuron differentiation score,[2]; library: Spectrum,inactive: 0
CCOCCOc1ccccc1C(N)=O,neuronal differentiation score,[1]; library: Spectrum,inactive: 1
same,dopaminergic neuron differentiation score,[2]; library: Spectrum,inactive: 0
Cc1ccc(C)c(OCCCC(C)(C)C(=O)O)c1 [Gemfibrozil],neuronal differentiation score,[1]; library: Prestwick,inactive: 0
same,dopaminergic neuron differentiation score,[2]; library: Prestwick,inactive: 0
CCN(CC)CCNC(=O)COc1ccc(OC)cc1 [Mefexamide hydrochloride],neuronal differentiation score,[1]; library: Prestwick,inactive: 0
same,dopaminergic neuron differentiation score,[2]; library: Prestwick,inactive: 0
Cc1c(C)c2c(c(C)c1O)CCC(C)(COc1ccc(CC3SC(=O)NC3=O)cc1)O2 (stereo not drawn) [Troglitazone],neuronal differentiation score,[1]; library: Prestwick,inactive: 0
same,dopaminergic neuron differentiation score,[2]; library: Prestwick,inactive: 0
N#C/C(=C\c1ccc(O)c(O)c1)C(=O)NCCCc1ccccc1,neuronal differentiation score,[1]; library: Tocriscreen,inactive: 0
same,dopaminergic neuron differentiation score,[2]; library: Tocriscreen,inactive: 0
CC(C)[C@H](N)C(=O)OCCOCn1cnc2c(=O)nc(N)[nH]c21,neuronal differentiation score,[1]; library: Spectrum,inactive: -1
same,dopaminergic neuron differentiation score,[2]; library: Spectrum,inactive: 0
COc1ccc2cc([C@@H](C)C(=O)O)ccc2c1 [(R) -Naproxen sodium salt],neuronal differentiation score,[1]; library: Prestwick,inactive: 0
same,dopaminergic neuron differentiation score,[2]; library: Prestwick,inactive: 0

# Reformatted tab-delimited: entries from further up
compound	measurement	setting	value
CC(=O)[C@H]1CC[C@H]2[C@@H]3C[C@H](C)C4=CC(=O)CC[C@]4(C)[C@H]3[C@@H](O)C[C@]12C [Medrysone]	dopaminergic neuron differentiation score	[2]; library: Prestwick	inactive: 0
O=NN(CCCl)C(=O)NCCCl	neuronal differentiation score	[1]; library: Spectrum	inactive: 0
COc1ccc2c(c1)OCC(Cc1ccc(OC)c(OC(C)=O)c1)C2=O (stereo not drawn)	dopaminergic neuron differentiation score	[2]; library: Spectrum	inactive: 0
